According to patent publication EP4610269A1 (3B Pharmaceuticals GmbH, priority 2024, dated 2025):
For some assays here: Strings that start with PEPTIDE1 are HELM notation: dots part the residues, brackets hold end groups and non-standard residues.

Assays:
[1] = general procedure: Fmoc solid-phase peptide synthesis; DEG Rink amide; details: whole synthesis
[2] = general procedure: Fmoc solid-phase peptide synthesis; DEG Rink amide (loading 0.18 mmol/g); details: whole synthesis, scale 50 µmol, side-chain lactam ring
[3] = general procedure: Fmoc solid-phase peptide synthesis; PS FMPB (ethyl amine); details: whole synthesis, scale 25 µmol
[4] = general procedure: Fmoc solid-phase peptide synthesis; polystyrene resin (PS or DEG) with Rink amide, 2-chloro-trityl or FMPB linker; Rink amide DEG resin loading 0.5 - 0.7 mm; details: for conjugation yield: conjugation step; for step yield: late stage modification step
[5] = general procedure: Fmoc solid-phase peptide synthesis; PS 2-chloro trityl; details: whole synthesis, scale 25 µmol
[6] = general procedure: Fmoc solid-phase peptide synthesis; PS cysteamine 2-chlorotrityl; details: whole synthesis, scale 25 µmol
[7] = general procedure: Fmoc solid-phase peptide synthesis; PS 2-chlorotrityl (L-cysteinol); details: whole synthesis, scale 25 µmol
[8] = general procedure: Fmoc solid-phase peptide synthesis; PS 2-chlorotrityl; details: whole synthesis, scale 50 µmol
[9] = scale 25 µmol, one disulfide bridge
[10] = scale 50 µmol, one disulfide bridge
[11] = scale 50 µmol, one disulfide bridge, sequence written open

With “PEPTIDE1{[Butoc].[Cys].T.[Orn_DOTA_].[My].F.[4Cfp].[Hyp].I.[Nva].[Cys].[am]}$PEPTIDE1,PEPTIDE1,2:R3-11:R3$$$V2.0” the isolated mass ([1]; scale 50 µmol) was 10.65 mg and the isolated yield ([1]; scale 50 µmol) was 12.7%.
In the case of “Pent-[Dab-Arg-Gln-Tyr-Phe-Pro-Hyp-Ile-Nva-Glu]-NH2”, the isolated mass [2] is reported as 2.00 mg and the isolated yield [2] is reported as 3.0%.
Work on “PEPTIDE1{[iHex].[Cys].[Cit].Q.[Mcy].F.P.[dA].I.L.[Cys].[am]}$PEPTIDE1,PEPTIDE1,2:R3-11:R3$$$V2.0” yielded an isolated mass ([1]; scale 25 µmol) of 2.06 mg and an isolated yield ([1]; scale 25 µmol) of 6.1%.
“PEPTIDE1{[Butoc].C.T.K.Y.F.[4Cfp].[Hyp].I.[Nva].C.[am]}|PEPTIDE2{[DOTA].[Kzw]}$PEPTIDE1,PEPTIDE1,2:R3-11:R3|PEPTIDE1,PEPTIDE2,4:R3-2:R2$$$V2.0” showed an isolated mass ([1]; scale 50 µmol) of 13.61 mg and an isolated yield ([1]; scale 50 µmol) of 13.8%.
With “PEPTIDE1{[Pent].[Cys].[Cit].Q.Y.F.P.[Hyp].I.[Nva].[Cys].[NHEt]}$PEPTIDE1,PEPTIDE1,2:R3-11:R3$$$V2.0” the isolated mass [3] was 0.96 mg and the isolated yield [3] was 2.8%.
“PEPTIDE1{[Butoc].[Cys].[Cit].Q.Y.F.P.[dA].I.L.[Cys].[am]}$PEPTIDE1,PEPTIDE1,2:R3-11:R3$$$V2.0” gave an isolated mass ([1]; scale 25 µmol) of 2.15 mg and an isolated yield ([1]; scale 25 µmol) of 6.6%.
Work on “PEPTIDE1{[PentylSO2].[Cys].R.Q.Y.F.P.[Hyp].I.[Nva].[Cys].[am]}$PEPTIDE1,PEPTIDE1,2:R3-11:R3$$$V2.0” yielded an isolated mass ([1]; scale 50 µmol) of 10.13 mg and an isolated yield ([1]; scale 50 µmol) of 14.8%.
In the case of “Pent-[Cys-Orn-Lys(DOTA)-Tyr-Phe-Pro-Hyp-Ile-Nva-Cys]-NHz”, the isolated mass ([1]; scale 50 µmol) is reported as 18.89 mg and the isolated yield ([1]; scale 50 µmol) is reported as 22.7% of theory.
“PEPTIDE1{[Pent].C.[Orn].K.Y.F.P.[Hyp].I.[Nva].C.[am]}|PEPTIDE2{[DOTA]}|PEPTIDE3{[TrisNtaTris]}$PEPTIDE1,PEPTIDE1,2:R3-11:R3|PEPTIDE1,PEPTIDE2,4:R3-1:R2|PEPTIDE1,PEPTIDE3,3:R3-1:R2$$$V2.0” showed an isolated mass ([1]; scale 50 µmol) of 5.44 mg and an isolated yield ([1]; scale 50 µmol) of 5.3%.
“PEPTIDE1{[Butoc].[Cys].T.[Orn_DOTA_].[Pcnf].F.[4Cfp].[Hyp].I.[Nva].[Cys].[am]}$PEPTIDE1,PEPTIDE1,2:R3-11:R3$$$V2.0” gave an isolated mass ([1]; scale 50 µmol) of 10.55 mg and an isolated yield ([1]; scale 50 µmol) of 12.4%.
With “Pent-[Cys-Glu(AGLU)-Gln-Tyr-Phe-Pro-Hyp-Ile-Nva-Cys]-NH2” the isolated mass [1, 9] was 3.15 mg and the isolated yield [1, 9] was 8.6%.
In the case of “Butoc-[Cys-Thr-Lys(AF488-Ttds)-Dopa-Phe-4Cfp-Hyp-Ile-Nva-Cys]-NH2”, the conjugation yield ([4]; one disulfide bridge) is reported as 17.2% of theory.
Substance “Butoc-[Cys-Thr-Lys(DOTA)-Tyr-Phe-4Cfp-Hyp-Ile-Dmdp-Cys]-NH2” has an isolated mass [1, 10] of 5.31 mg and an isolated yield [1, 10] of 6.2%.
For “PEPTIDE1{[iHex].[Cys].[Cit].Q.Y.F.P.[dA].I.L.[Cys]}$PEPTIDE1,PEPTIDE1,2:R3-11:R3$$$V2.0”, the isolated mass [5] was 5.10 mg and the isolated yield [5] was 15.6%.
For “PEPTIDE1{[DOTA].[O2Oc].L.[Cys].[Cit].Q.Y.F.P.P.I.L.[Cys].[am]}$PEPTIDE1,PEPTIDE1,4:R3-13:R3$$$V2.0”, the isolated mass ([1]; scale 50 µmol) was 17.68 mg and the isolated yield ([1]; scale 50 µmol) was 18.8%.
For “PEPTIDE1{[nBuCAyl].[Cys].T.[Lys_DOTA_].Y.F.P.[Hyp].I.[Nva].[Cys].[am]}$PEPTIDE1,PEPTIDE1,2:R3-11:R3$$$V2.0”, the isolated mass ([1]; scale 50 µmol) was 15.38 mg and the isolated yield ([1]; scale 50 µmol) was 18.4%.
“PEPTIDE1{[Pent].A.[Cit].Q.Y.F.P.[Hyp].I.[Nva].[Smc].[am]}$$$$V2.0” gave an isolated mass ([1]; scale 25 µmol) of 8.48 mg and an isolated yield ([1]; scale 25 µmol) of 25.9%.
“PEPTIDE1{[ac].[Phg].[Cys].R.Q.Y.F.P.[Hyp].I.[Nva].[Cys].[am]}$PEPTIDE1,PEPTIDE1,3:R3-12:R3$$$V2.0” showed an isolated mass ([1]; scale 25 µmol) of 4.86 mg and an isolated yield ([1]; scale 25 µmol) of 13.8%.
In the case of “Pent-[Cys(2MeBn)-Arg-Gln-Tyr-Phe-Pro-Hyp-Ile-Nva-Cys]-NH2”, the isolated mass ([1]; scale 25 µmol, thioether ring) is reported as 5.49 mg and the isolated yield ([1]; scale 25 µmol, thioether ring) is reported as 15.4%.
“PEPTIDE1{[Pent].[Cys].R.Q.Y.F.P.[Hyp].I.[Nva].[AET]}$PEPTIDE1,PEPTIDE1,2:R3-11:R3$$$V2.0” showed an isolated mass [6] of 6.22 mg and an isolated yield [6] of 19.4%.
With “PEPTIDE1{[iHex].[Cys].[Lys_DOTA_].Q.Y.F.P.P.I.L.[Cys].[am]}$PEPTIDE1,PEPTIDE1,2:R3-11:R3$$$V2.0” the isolated mass ([1]; scale 50 µmol) was 13.14 mg and the isolated yield ([1]; scale 50 µmol) was 15.5%.
In the case of “PEPTIDE1{[Butoc].C.T.K.Y.F.[4Cfp].[Hyp].I.[Nva].C.[am]}|PEPTIDE2{[DOTA].[dD]}$PEPTIDE1,PEPTIDE1,2:R3-11:R3|PEPTIDE1,PEPTIDE2,4:R3-2:R2$$$V2.0”, the isolated mass ([1]; scale 50 µmol) is reported as 6.99 mg and the isolated yield ([1]; scale 50 µmol) is reported as 7.8%.
“PEPTIDE1{[Butoc].[Cys].T.[Orn_DOTA_].[Ay3].F.[4Cfp].[Hyp].I.[Nva].[Cys].[am]}$PEPTIDE1,PEPTIDE1,2:R3-11:R3$$$V2.0” gave an isolated mass ([1]; scale 50 µmol) of 1.21 mg and an isolated yield ([1]; scale 50 µmol) of 1.4%.
For “PEPTIDE1{[Pent].[Cys].[Cit].Q.Y.F.P.[dA].I.L.[Cys].[am]}$PEPTIDE1,PEPTIDE1,2:R3-11:R3$$$V2.0”, the isolated mass ([1]; scale 25 µmol) was 5.30 mg and the isolated yield ([1]; scale 25 µmol) was 16.4%.
“PEPTIDE1{[Pent].[Cys].[Cit].Q.Y.F.P.[Hyp].I.[Nva].[Cysol]}$PEPTIDE1,PEPTIDE1,2:R3-11:R3$$$V2.0” showed an isolated mass [7] of 1.38 mg and an isolated yield [7] of 4.2%.
Substance “PEPTIDE1{[Pent].[Cys(meth)].[Cit].Q.Y.F.P.[Hyp].I.[Nva].C.[am]}$PEPTIDE1,PEPTIDE1,2:R3-11:R3$$$V2.0” has an isolated mass ([1]; scale 50 µmol) of 3.73 mg and an isolated yield ([1]; scale 50 µmol) of 5.6%.
Work on “PEPTIDE1{[NEtg].[Cys].[Cit].Q.Y.F.P.[dA].I.L.[Cys].[am]}$PEPTIDE1,PEPTIDE1,2:R3-11:R3$$$V2.0” yielded an isolated mass ([1]; scale 25 µmol) of 1.08 mg and an isolated yield ([1]; scale 25 µmol) of 3.3%.
With “PEPTIDE1{[Pent].C.[Orn].K.Y.F.P.[Hyp].I.[Nva].C.[am]}|CHEM1{[TrisPEG]}|CHEM2{[DOTA]}$PEPTIDE1,PEPTIDE1,2:R3-11:R3|PEPTIDE1,CHEM1,3:R3-1:R2|PEPTIDE1,CHEM2,4:R3-1:R2$$$V2.0” the conjugation yield [4] was 41.3% of theory.
In the case of “Butoc-[Cys-Thr-Lys(DOTA)-Dopa-Phe-4Cfp-Hyp-Ile-Nva-Cys]-NH2”, the step yield ([4]; one disulfide bridge) is reported as 91.3%.
“PEPTIDE1{[Pent].C.[Cit].K.Y.F.P.[Nmk].I.[Nva].C.[am]}|PEPTIDE2{[Bio].[Ttds]}$PEPTIDE1,PEPTIDE1,2:R3-11:R3|PEPTIDE1,PEPTIDE2,4:R3-2:R2$$$V2.0” gave an isolated mass ([1]; scale 50 µmol) of 3.91 mg and an isolated yield ([1]; scale 50 µmol) of 4.2%.
For “PEPTIDE1{[nBuCAyl].[Cys].[Cit].Q.Y.F.P.[dA].I.L.[Cys].[am]}$PEPTIDE1,PEPTIDE1,2:R3-11:R3$$$V2.0”, the isolated mass ([1]; scale 25 µmol) was 4.59 mg and the isolated yield ([1]; scale 25 µmol) was 14.0%.
“PEPTIDE1{[Glutar].[Cys].[Cit].Q.Y.F.P.[dA].I.L.[Cys].[am]}$PEPTIDE1,PEPTIDE1,2:R3-11:R3$$$V2.0” showed an isolated mass ([1]; scale 25 µmol) of 6.76 mg and an isolated yield ([1]; scale 25 µmol) of 20.4%.
With “Butoc-[Cys-Thr-Lys(H-Ttds)-Tyr-Phe-4Cfp-Hyp-Ile-Nva-Cys]-NH2” the isolated mass ([1]; scale 100 µmol) was 24.9 mg and the isolated yield ([1]; scale 100 µmol) was 15.4% of theory.
With “Pent-[Cys-Cit-Lys(GdDOTA)-Tyr-Ocf-Pro-Hyp-Ile-Nva-Cys]-NH2” the step yield ([4]; one disulfide bridge) was 82.6%.
For “PEPTIDE1{[Pent].C.[Cit].K.Y.F.P.[Hyp].I.[Nva].C.[am]}|PEPTIDE2{[DOTA].[PEG12]}$PEPTIDE1,PEPTIDE1,2:R3-11:R3|PEPTIDE1,PEPTIDE2,4:R3-2:R2$$$V2.0”, the isolated mass ([1]; scale 50 µmol) was 9.98 mg and the isolated yield ([1]; scale 50 µmol) was 8.6%.
With “Pent-Cys-Om(mPEG12)-Lys(DOTA)-Tyr-Phe-Pro-Hyp-Ile-Nva-Cys-NH2” the isolated mass [1, 11] was 8.49 mg and the isolated yield [1, 11] was 7.6%.
Substance “PEPTIDE1{[Butoc].[Cys].T.[Lys_DOTA_].Y.F.[4Cfp].[Hyp].I.[Nva].[Cys].[Bal]}$PEPTIDE1,PEPTIDE1,2:R3-11:R3$$$V2.0” has an isolated mass [8] of 15.38 mg and an isolated yield [8] of 18.4%.
For “AGLU-Glutar-Nva-[Cys-Cit-Gln-Tyr-Phe-Pro-Hyp-Ile-Nva-Cys]-NHz”, the isolated mass [1, 9] was 7.85 mg and the isolated yield [1, 9] was 19.4%.
Work on “PEPTIDE1{[Me].[Nml].[Cys].R.Q.Y.F.P.[Hyp].I.[Nva].[Cys].[am]}$PEPTIDE1,PEPTIDE1,3:R3-12:R3$$$V2.0” yielded an isolated mass ([1]; scale 50 µmol) of 6.30 mg and an isolated yield ([1]; scale 50 µmol) of 9.1%.
